Values joined by “and” are separate entries in the source; they are usually repeats but may differ in a detail not shown here. Identical values can stand only once. Out of some 300,000 compounds screened, about 5,400 (1.8%) were called active. The inconclusive results got no clear call from the source; some entries with a clear call stand among them for comparison. Calls follow the shape of the full dose curve; tested in HEK293 cells. A potency beside an inconclusive call is a rough fit, not a confirmed value.
experiment: qHTS for inhibitors of binding or entry into cells for Marburg Virus; conditions: Marburg virus pseudotyped entry inhibition, cell reporter; activity change, negative = inhibition: at 37.8 µM (top of the series) unless noted
% is scaled to controls: 0 for no effect and ±100 for the full control effect; potency is read from the fitted curve at half-maximal effect.

Row | SMILES | Potency | activity change, negative = inhibition
1 | CC(C)CCN(C(=O)C1=COCCO1)c1c(N)n(Cc2ccccc2)c(=O)[nH]c1=O | inconclusive: 1.12 µM [activator, single point] | –
2 | COC(=O)/C(=C\c1cc(OC)c(OC)c(OC)c1)c1nc2ccccc2[nH]1 | – | inactive: -16.1% [at 46.1 µM]
3 | CCc1ccc(NS(=O)(=O)c2ccc3[nH]cc(C(=O)NC4CCCC4)c(=O)c3c2)cc1 | inconclusive: 35.5 µM [inhibitor, single point] | –
4 | O=C(CC1SC(=NCC2CCCO2)NC1=O)Nc1cccc2ccccc12 (stereo not drawn) | inconclusive: 16.4 µM [inhibitor, partial curve, poor fit] | –
5 | CCc1cccc(NC(=O)CSC2=NS(=O)(=O)c3ccccc32)c1 | – | inactive: 7.51%
6 | Cc1ccc(C(=O)N2CCN(S(=O)(=O)N3CCCCC3)CC2)cc1 | inconclusive: 1.26 µM [activator, partial curve, poor fit] | –
7 | CCOC(=O)c1ccc2cccc(C)n2c1=O | inconclusive: 11.2 µM [activator, single point] | –
8 | COc1ccc(O[C@H]2C=C[C@@H](c3ccccc3)O[C@@H]2CO/N=C/[C@@H](C)[C@H](OCc2ccccc2)C(C)C)cc1 | inconclusive: 0.006 µM [inhibitor, full curve, poor fit] | –
9 | O=C(c1cc2ccccc2o1)N(Cc1nnc(-c2ccccc2Cl)o1)C1CC1 | inconclusive: 0.224 µM [inhibitor, full curve, poor fit] | –
10 | COc1cccc(-n2c(N)c(-c3nc4ccccc4[nH]3)sc2=S)c1 | – | inactive: 4.28% [at 46.1 µM]
11 | CC(C)c1ccc(NC(=O)C2CCCN(S(=O)(=O)c3ccc(Br)s3)C2)cc1 (stereo not drawn) | inconclusive: 15.8 µM [inhibitor, single point] | –
12 | NC(=O)COC(=O)c1c2c(nc3ccccc13)CCCC2 | – | inactive: 11.4% [at 46.1 µM]
13 | CN1/C(=C\C(=O)c2ccco2)C(C)(C)c2ccccc21 | – | inactive: -35.5%
14 | Cc1nnc(NC(=O)C2CCN(C(=O)c3ccco3)CC2)s1 | inactive | –
15 | CCOc1cc(NS(=O)(=O)c2ccc(NC(C)=O)cc2)c(OCC)cc1NC(=O)c1cccs1 | – | inactive: 2.1%
16 | COc1ccccc1NC(=O)COc1ccc(CO)cc1Cl | – | inactive: 28.8%
17 | CCc1nc(N)c(C#N)c(-c2ccc(O)c(OC)c2)c1C | inconclusive: 0.164 µM [inhibitor, full curve, poor fit] | –
18 | CCN(CCCNC(=O)CNC(=O)c1nn(-c2ccc(OC)cc2)c(=O)c2ccccc12)c1cccc(C)c1 | inconclusive: 12.6 µM [inhibitor, partial curve, poor fit] | –
19 | CC(=O)N1c2ccccc2C(C)CC12CCCCC2 (stereo not drawn) | – | inactive: 3.16%
20 | O=C(c1ccc(COc2ccccc2Cl)o1)N1CCN(Cc2ccc3c(c2)OCO3)CC1 | inconclusive: 35.5 µM [inhibitor, single point] | –
21 | CCCCCNC(=O)c1cc(S(=O)(=O)N2CCCCC2)ccc1F | – | inactive: 5.32%
22 | O=C(CSc1nnc(-c2n[nH]c3ccccc23)n1-c1ccccc1)Nc1ccccc1Cl | inconclusive: 8.2 µM [inhibitor, partial curve, poor fit] | –

Row | SMILES | Potency | activity change, negative = inhibition
23 | CC(=O)OC[C@H]1O[C@H](C/C=N/OC[C@@H](O)[C@H]2O[C@@H]3OC(C)(C)O[C@@H]3[C@H]2O)C=C[C@@H]1OC(C)=O | inconclusive: 0.0084 µM [inhibitor, full curve, poor fit] | –
24 | CCCN(CCC)C1CCc2cccc(O)c2C1 (stereo not drawn) | inconclusive: 1.3 µM [inhibitor, partial curve, poor fit] and inconclusive: 35.5 µM [activator, single point] | –
25 | COc1ccc(C/C(N)=N/OC(=O)c2ccc(Cl)cc2)cc1 | – | inactive: -19.2% [at 46.1 µM]
26 | C/C(O)=c1/ccc2cccc3nc(C)nc1c23 | – | inactive: -20.1%
27 | Cc1cc(C)c2c(CC(=O)Nc3nnc(C(C)C)s3)coc2c1 | inconclusive: 35.5 µM [activator, single point] | –
28 | COc1ccc(NS(=O)(=O)c2ccc3nc(COc4ccc5ccccc5c4)[nH]c3c2)cc1 | inconclusive: 15.8 µM [inhibitor, single point] | –
29 | COCC(C)n1c(SCc2ccc(C(=O)OC)o2)nc2ccccc2c1=O (stereo not drawn) | inconclusive: 29.1 µM [inhibitor, single point] | –
30 | CCOC(=O)NC(Nc1nnc(C)s1)(C(=O)OCC)C(F)(F)F (stereo not drawn) | inconclusive: 6.31 µM [inhibitor, single point] | –
31 | CCc1ccccc1OCCCCN1CCCCC1 | inconclusive: 22.4 µM [inhibitor, single point] | –
32 | Cc1ccc(C)c(NC(=S)N(Cc2ccc(Cl)cc2)Cc2ccc(C(=O)O)cc2)c1 | inconclusive: 17.8 µM [inhibitor, partial curve, poor fit] | –
33 | O=C(CCc1ccccc1)Nc1ccc(S(=O)(=O)N2CCOCC2)cc1 | – | inactive: 0.94% [at 46.1 µM]
34 | Cc1cc(NC(=O)CCC(=O)N(c2ccccc2)C(C(=O)NC2CCCC2)c2ccccc2F)no1 (stereo not drawn) | inconclusive: 11.2 µM [inhibitor, partial curve, poor fit] | –
35 | Cc1cc(C)n(-c2nnc(C)n2/N=C/c2cc(Br)ccc2OCc2ccccc2)n1 | inactive | –
36 | CCn1cc(CN2CCN(Cc3ccc(OC)c(C)c3C)C(CCO)C2)c(C)n1 (stereo not drawn) | inconclusive: 1 µM [inhibitor, partial curve, poor fit] | –
37 | CCOCCCNCc1ccc(OCc2ccccc2Cl)cc1 | inconclusive: 2 µM [inhibitor, partial curve, poor fit] | –
38 | CC(C)CC(=O)NCCNC(=O)c1cc(OCC(F)(F)F)ccc1OCC(F)(F)F | – | inactive: 0.102%
39 | CCOC(=O)c1ccc(NC(=O)NC2CCN(CC(=O)NCc3ccc4c(c3)OCO4)CC2)cc1 | inconclusive: 29.1 µM [inhibitor, single point] | –
40 | CCCC(=O)O[C@H]1C[C@@H](C)N(C(=O)c2ccccc2)c2ccc(C)cc21 | inconclusive: 35.5 µM [inhibitor, single point] | –
41 | O=C(CSc1nnc(C2CCCCC2)n1-c1ccccc1)NCc1ccco1 | – | inactive: -2.6%
42 | O=C(Nc1ccc(C(F)(F)F)cc1)C1CCCN1S(=O)(=O)c1cccc2cccnc12 (stereo not drawn) | inconclusive: 29.1 µM [inhibitor, single point] | –
43 | CC(=O)N(Cc1cc(=O)[nH]c2ccccc12)c1cccc(C)c1 | – | inactive: 9.12%
